Measured values reported in patent US20220074941A1, “HSP90 COMBINATION THERAPY” (Sloan-Kettering Institute for Cancer Research, priority 2011, published 2022).

What was measured:
[1] = test system: Hsp90 complexes in K562 cell extract; test: Nano-LC-MS/MS of PU-beads pull-downs; type: binding; conditions: protein identified in PU-beads pull-down of K562 extract, QSTAR-Elite QTof MS
In short: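 Proteins were identified by data-dependent nano LC-MS/MS (QTof, ESI) and Mascot searching (p<0.05), then reported as spectral counts and coverage via Scaffold. Inputs were PU-bead versus control-bead pull-downs from lysate pre-cleared with control beads overnight at 4 °C, eluted by boiling in 2% SDS.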

[2] = test system: Hsp90 complexes in Mia-PaCa-2 cell extract; test: Nano-LC-MS/MS of PU-beads pull-downs; type: binding, human; conditions: protein identified in PU-beads pull-down of Mia-Paca 2 extract; QSTAR-Elite QTof MS
In short: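 They came from PU-bead pull-downs of pre-cleared lysates (control beads, overnight, 4 °C), eluted by boiling in 2% SDS, gel-separated and run by data-dependent nano-ESI QTof MS/MS.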

Molecule | Number of Assigned Spectra, K562 Prep 1 [1] | Number of Assigned Spectra, K562 Prep 2 [1] | Number of Assigned Spectra, Mia-Paca 2 [2]
MYBBP1A (protein, UniProt Q9BQG0 1-1328, looked up) Myb-binding protein 1A: MESRDPAQPMSPGEATQSGARPADRYGLLKHSREFLDFFWDIAKPEQETRLAATEKLLEYLRGRPKGSEMKYALKRLITGLGVGRETARPCYSLALAQLLQSFEDLPLCSILQQIQEKYDLHQVKKAMLRPALFANLFGVLALFQSGRLVKDQEALMKSVKLLQALAQYQNHLQEQPRKALVDILSEVSKATLQEILPEVLKADLNIILSSPEQLELFLLAQQKVPSKLKKLVGSVNLFSDENVPRLVNVLKMAASSVKKDRKLPAIALDLLRLALKEDKFPRFWKEVVEQGLLKMQFWPASYLCFRLLGAALPLLTKEQLHLVMQGDVIRHYGEHVCTAKLPKQFKFAPEMDDYVGTFLEGCQDDPERQLAVLVAFSSVTNQGLPVTPTFWRVVRFLSPPALQGYVAWLRAMFLQPDLDSLVDFSTNNQKKAQDSSLHMPERAVFRLRKWIIFRLVSIVDSLHLEMEEALTEQVARFCLFHSFFVTKKPTSQIPETKHPFSFPLENQAREAVSSAFFSLLQTLSTQFKQAPGQTQGGQPWTYHLVQFADLLLNHSHNVTTVTPFTAQQRQAWDRMLQTLKELEAHSAEARAAAFQHLLLLVGIHLLKSPAESCDLLGDIQTCIRKSLGEKPRRSRTKTIDPQEPPWVEVLVEILLALLAQPSHLMRQVARSVFGHICSHLTPRALQLILDVLNPETSEDENDRVVVTDDSDERRLKGAEDKSEEGEDNRSSESEEESEGEESEEEERDGDVDQGFREQLMTVLQAGKALGGEDSENEEELGDEAMMALDQSLASLFAEQKLRIQARRDEKNKLQKEKALRRDFQIRVLDLVEVLVTKQPENALVLELLEPLLSIIRRSLRSSSSKQEQDLLHKTARIFTHHLCRARRYCHDLGERAGALHAQVERLVQQAGRQPDSPTALYHFNASLYLLRVLKGNTAEGCVHETQEKQKAGTDPSHMPTGPQAASCLDLNLVTRVYSTALSSFLTKRNSPLTVPMFLSLFSRHPVLCQSLLPILVQHITGPVRPRHQACLLLQKTLSMREVRSCFEDPEWKQLMGQVLAKVTENLRVLGEAQTKAQHQQALSSLELLNVLFRTCKHEKLTLDLTVLLGVLQGQQQSLQQGAHSTGSSRLHDLYWQAMKTLGVQRPKLEKKDAKEIPSATQSPISKKRKKKGFLPETKKRKKRKSEDGTPAEDGTPAATGGSQPPSMGRKKRNRTKAKVPAQANGTPTTKSPAPGAPTRSPSTPAKSPKLQKKNQKPSQVNGAPGSPTEPAGQKQHQKALPKKGVLGKSPLSALARKKARLSLVIRSPSLLQSGAKKKAQVRKAGKP | 4 | 4 | 29
ATG5 (protein, UniProt Q9H1Y0 1-275, looked up) Autophagy protein 5: MTDDKDVLRDVWFGRIPTCFTLYQDEITEREAEPYYLLLPRVSYLTLVTDKVKKHFQKVMRQEDISEIWFEYEGTPLKWHYPIGLLFDLLASSSALPWNITVHFKSFPEKDLLHCPSKDAIEAHFMSCMKEADALKHKSQVINEMQKKDHKQLWMGLQNDRFDQFWAINRKLMEYPAEENGFRYIPFRIYQTTTERPFIQKLFRPVAADGQLHTLGDLLKEVCPSAIDPEDGEKKNQVMIHGIEPMLETPLQWLSEHLSYPDNFLHISIIPQPTD | 2 | 1 | 0
TNFAIP2 (protein, UniProt Q03169 1-654, looked up) Tumor necrosis factor …: MSEASSEDLVPPLEAGAAPYREEEEAAKKKKEKKKKSKGLANVFCVFTKGKKKKGQPSSAEPEDAAGSRQGLDGPPPTVEELKAALERGQLEAARPLLALERELAAAAAAGGVSEEELVRRQSKVEALYELLRDQVLGVLRRPLEAPPERLRQALAVVAEQEREDRQAAAAGPGTSGLAATRPRRWLQLWRRGVAEAAEERMGQRPAAGAEVPESVFLHLGRTMKEDLEAVVERLKPLFPAEFGVVAAYAESYHQHFAAHLAAVAQFELCERDTYMLLLWVQNLYPNDIINSPKLVGELQGMGLGSLLPPRQIRLLEATFLSSEAANVRELMDRALELEARRWAEDVPPQRLDGHCHSELAIDIIQITSQAQAKAESITLDLGSQIKRVLLVELPAFLRSYQRAFNEFLERGKQLTNYRANVIANINNCLSFRMSMEQNWQVPQDTLSLLLGPLGELKSHGFDTLLQNLHEDLKPLFKRFTHTRWAAPVETLENIIATVDTRLPEFSELQGCFREELMEALHLHLVKEYIIQLSKGRLVLKTAEQQQQLAGYILANADTIQHFCTQHGSPATWLQPALPTLAEIIRLQDPSAIKIEVATYATCYPDFSKGHLSAILAIKGNLSNSEVKRIRSILDVSMGAQEPSRPLFSLIKVG | 2 | 1 | 0
RBBP7 (protein, UniProt Q16576 2-425, looked up) Histone-binding protein RBBP7: ASKEMFEDTVEERVINEEYKIWKKNTPFLYDLVMTHALQWPSLTVQWLPEVTKPEGKDYALHWLVLGTHTSDEQNHLVVARVHIPNDDAQFDASHCDSDKGEFGGFGSVTGKIECEIKINHEGEVNRARYMPQNPHIIATKTPSSDVLVFDYTKHPAKPDPSGECNPDLRLRGHQKEGYGLSWNSNLSGHLLSASDDHTVCLWDINAGPKEGKIVDAKAIFTGHSAVVEDVAWHLLHESLFGSVADDQKLMIWDTRSNTTSKPSHLVDAHTAEVNCLSFNPYSEFILATGSADKTVALWDLRNLKLKLHTFESHKDEIFQVHWSPHNETILASSGTDRRLNVWDLSKIGEEQSAEDAEDGPPELLFIHGGHTAKISDFSWNPNEPWVICSVSEDNIMQIWQMAENIYNDEESDVTTSELEGQGS | 5 | 4 | 3
AMBRA1 (protein, UniProt Q9C0C7 1-1298, looked up) Activating molecule in …: MKVVPEKNAVRILWGRERGARAMGAQRLLQELVEDKTRWMKWEGKRVELPDSPRSTFLLAFSPDRTLLASTHVNHNIYITEVKTGKCVHSLIGHRRTPWCVTFHPTISGLIASGCLDGEVRIWDLHGGSESWFTDSNNAIASLAFHPTAQLLLIATANEIHFWDWSRREPFAVVKTASEMERVRLVRFDPLGHYLLTAIVNPSNQQGDDEPEIPIDGTELSHYRQRALLQSQPVRRTPLLHNFLHMLSSRSSGIQVGEQSTVQDSATPSPPPPPPQPSTERPRTSAYIRLRQRVSYPTAECCQHLGILCLCSRCSGTRVPSLLPHQDSVPPASARATTPSFSFVQTEPFHPPEQASSTQQDQGLLNRPSAFSTVQSSTAGNTLRNLSLGPTRRSLGGPLSSHPSRYHREIAPGLTGSEWTRTVLSLNSRSEAESMPPPRTSASSVSLLSVLRQQEGGSQASVYTSATEGRGFPASGLATESDGGNGSSQNNSGSIRHELQCDLRRFFLEYDRLQELDQSLSGEAPQTQQAQEMLNNNIESERPGPSHQPTPHSSENNSNLSRGHLNRCRACHNLLTFNNDTLRWERTTPNYSSGEASSSWQVPSSFESVPSSGSQLPPLERTEGQTPSSSRLELSSSASPQEERTVGVAFNQETGHWERIYTQSSRSGTVSQEALHQDMPEESSEEDSLRRRLLESSLISLSRYDGAGSREHPIYPDPARLSPAAYYAQRMIQYLSRRDSIRQRSMRYQQNRLRSSTSSSSSDNQGPSVEGTDLEFEDFEDNGDRSRHRAPRNARMSAPSLGRFVPRRFLLPEYLPYAGIFHERGQPGLATHSSVNRVLAGAVIGDGQSAVASNIANTTYRLQWWDFTKFDLPEISNASVNVLVQNCKIYNDASCDISADGQLLAAFIPSSQRGFPDEGILAVYSLAPHNLGEMLYTKRFGPNAISVSLSPMGRYVMVGLASRRILLHPSTEHMVAQVFRLQQAHGGETSMRRVFNVLYPMPADQRRHVSINSARWLPEPGLGLAYGTNKGDLVICRPEALNSGVEYYWDQLNETVFTVHSNSRSSERPGTSRATWRTDRDMGLMNAIGLQPRNPATSVTSQGTQTLALQLQNAETQTEREVPEPGTAASGPGEGEGSEYGASGEDALSRIQRLMAEGGMTAVVQREQSTTMASMGGFGNNIIVSHRIHRSSQTGTEPGAAHTSSPQPSTSRGLLPEAGQLAERGLSPRTASWDQPGTPGREPTQPTLPSSSPVPIPVSLPSAEGPTLHCELTNNNHLLDGGSSRGDAAGPRGEPRNR | 2 | 2 | 1
